Measured values published in paper PMC7515710.

Key:
[1] = target: His6-3xFlag fused Mmp-RpoL (subunit L of the archaeal RNA polymerase of M. maripaludis) (Methanococcus maripaludis S2); assay: tandem affinity purification (TAP); about 20 mg cell extract of strain Mmp-RpoL-HF first purified by His-tag affinity chromatography, concentrated, imidazole removed, then anti-Flag immunoprecipitation; western blot for Mmp-aCPSF1; S2 as mock control
[2] = target: His6-3xFlag fused Mmp-RpoL (subunit L of the archaeal RNA polymerase of M. maripaludis) (Methanococcus maripaludis S2); assay: pull-down; His-tag affinity chromatography: about 20 mg cell extract of strain Mmp-RpoL-HF on a His-Trap HP column; western blot for Mmp-aCPSF1; S2 as mock control
[3] = target: His6-3xFlag fused Mmp-RpoL (subunit L of the archaeal RNA polymerase of M. maripaludis) (Methanococcus maripaludis S2); assay: co-IP; anti-FLAG M2 magnetic beads added to 5 mg pretreated cell extract of strain Mmp-RpoL-HF, 8 h at 4°C, five washes with lysis buffer, eluted with 3x FLAG peptide; western blot for Mmp-aCPSF1; extract untreated or treated with RNase, DNase or Benzonase; S2 as mock control

binding [1]: binds
binding [2]: binds
binding [3]: binds
B1: Mmp-aCPSF1 (archaeal ribonuclease aCPSF1 of Methanococcus maripaludis) (enzyme, UniProt Q6LZD5 1-635)
chain: MSAEDILNEIKAAVINKAPGNAVITDVEFEGSEVVIYAKNPELFSNNLIKEFARDFRKRLAIRPDPSVLVEPDIAKDKILKIVPEDAEITNCIFDANTGEVIIESKKPGLVIGKEGSTLEDIKKAIQWAPKPVRTPPIPSDTIKAIRATMYRERADVKDILRRIGRRIHRDVRLRDDSWVRTSFLGGSREVGRTCLYHQTPESRILVDCGINIAVEDEKAFPHFDAPEFSIEEIDAVVVTHAHLDHCGFIPGLFRYGYDGPVYCTKPTRDLMTLLQKDYVDITEKEGKNVPYSSKDIKNCIKHTIPLDYGVTTDIAPAIKLTMHNAGHILGSAIAHCHVGDGLYNVAYTGDIKFEASRLLEPAVCQFPRLETLIIESTYGGYDDVLPERDETEKEFLRVIAETIARKGKAIIPVFGIGRAQELMLVLEEGYNQGIFNAPVYLDGMIWEATAIHTAYPEYLSKNMRNRIFHEGDNPFLSEVFKKVKNTNDRRNIMDSDEPGIILTTSGMLSGGPSVEYFKNLADDEKNSIVFVGYQSEGTLGRKIQKGFKEIPLMGKNGRSKAVKVNLSVHTLEGFSGHSDRKQLIKYLRKLKPIPDRILTVHGEVSKCIDLASTAYKLFKKETKAPMNLDSIRLR

No constants are given. Whether binding was seen depends on the method and setting. A result given as binding can be weak or reduced; the word gives no strength. For part of these data: Binding seen in cells or lysates may run through a third protein.
